The values that follow come from publication PMC7407311.

No constants are given. Whether binding was seen depends on the method and setting. In cells and extracts the contact can be indirect. A result given as binding can be weak or reduced; the word gives no strength.

For test [1], the target named is T1, chemokine (C-X-C motif) ligand 14 (CXCL14), endogenous in hESCs (human (endogenous in hESCs)) (UniProt O95715).
T1 sequence: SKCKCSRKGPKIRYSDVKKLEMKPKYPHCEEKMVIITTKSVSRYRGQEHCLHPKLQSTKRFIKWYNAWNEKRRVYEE
Description: co-IP; hESC lysate (1 mg; 20 mM Tris, 1% Triton X-100, 150 mM NaCl) with 1 ug antibody against IGF-1R or CXCL14 or isotype IgG overnight at 4 °C, Protein G magnetic beads, washed 5 times with PBST, Western blot. In general terms: Immunoblotting shows a protein as a band on a membrane.

The target in test [2] is insulin-like growth factor 1 receptor (IGF-1R), endogenous in hESCs (human (endogenous in hESCs)). Description: proximity ligation; Duolink PLA on fixed hESCs, endogenous CXCL14 and IGF-1R (Ctrl), isotype IgG as negative control.
The target is the same in test [3]. Nature of the test: co-IP; hESC lysate (1 mg; 20 mM Tris, 1% Triton X-100, 150 mM NaCl) with 1 ug antibody against IGF-1R or CXCL14 or isotype IgG overnight at 4 °C, Protein G magnetic beads, washed 5 times with PBST, Western blot.
The target is the same in test [4]. Nature of the test: proximity ligation; Duolink PLA on fixed hESCs treated with exogenous CXCL14 (+CXCL14); only the binder purified.

Regarding “insulin-like growth factor 1 receptor (IGF-1R), endogenous in hESCs (human (endogenous in hESCs))”, in test [1], the binding entry is on record as “binds”.

B1: chemokine (C-X-C motif) ligand 14 (CXCL14), endogenous in hESCs (ligand, UniProt O95715 35-111)
chain: T1 sequence
Regarding B1, the binding result in test [2] and in test [3] was “binds” in each case.

B2: recombinant CXCL14 protein (PeproTech) (ligand, UniProt O95715 35-111)
chain: T1 sequence
With B2, the binding result in test [4] is recorded as “binds”.
